Changes are numbered by the printed parent chain. No constants are given. Whether binding was seen depends on the method and setting. A result given as binding can be weak or reduced; the word gives no strength. For some of these results: Sequences can lack the tags named with a protein. For some of these results: Binding seen in cells or lysates may run through a third protein.
How the values were obtained:
[1] = target: T1, HA-tagged human CRP2 (cysteine-and glycine-rich protein 2), in vitro translated (human) (UniProt Q16527); assay: co-IP; in vitro protein binding assay: mixtures (500 ul) of in vitro translated tagged proteins (wheat germ extract) immunoprecipitated with anti-HA affinity matrix or anti-Flag M2 gel (control gel beside), immunoblot; relative binding affinity normalised to the control = 100%
T1 sequence: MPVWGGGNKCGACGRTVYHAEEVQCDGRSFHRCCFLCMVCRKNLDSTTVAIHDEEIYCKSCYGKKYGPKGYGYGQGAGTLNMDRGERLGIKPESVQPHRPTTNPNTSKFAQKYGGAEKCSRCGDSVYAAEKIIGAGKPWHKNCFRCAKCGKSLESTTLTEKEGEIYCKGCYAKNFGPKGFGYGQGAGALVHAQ

[2] = target: T2, HA-tagged human CRP2, expressed in HSFs (human) (UniProt Q16527); assay: co-IP; whole-cell extracts of HSFs transfected with Flag-MRTF-A and HA-CRP2 plasmids, immunoprecipitated with control gel, anti-HA affinity matrix or anti-Flag M2 gel, immunoblot
T2 sequence: T1 sequence

[3] = target: T3, Myc-tagged human SRF (serum response factor), in vitro translated (human) (UniProt P11831); assay: DNA affinity binding assay; biotinylated 3xCArG probe on Streptavidin M-280 Dynabeads incubated with in vitro translated proteins at 4°C for 3 hours with rotation; probe-bound proteins detected by immunoblot; control Dynabeads and free 3xCArG as controls
T3 sequence: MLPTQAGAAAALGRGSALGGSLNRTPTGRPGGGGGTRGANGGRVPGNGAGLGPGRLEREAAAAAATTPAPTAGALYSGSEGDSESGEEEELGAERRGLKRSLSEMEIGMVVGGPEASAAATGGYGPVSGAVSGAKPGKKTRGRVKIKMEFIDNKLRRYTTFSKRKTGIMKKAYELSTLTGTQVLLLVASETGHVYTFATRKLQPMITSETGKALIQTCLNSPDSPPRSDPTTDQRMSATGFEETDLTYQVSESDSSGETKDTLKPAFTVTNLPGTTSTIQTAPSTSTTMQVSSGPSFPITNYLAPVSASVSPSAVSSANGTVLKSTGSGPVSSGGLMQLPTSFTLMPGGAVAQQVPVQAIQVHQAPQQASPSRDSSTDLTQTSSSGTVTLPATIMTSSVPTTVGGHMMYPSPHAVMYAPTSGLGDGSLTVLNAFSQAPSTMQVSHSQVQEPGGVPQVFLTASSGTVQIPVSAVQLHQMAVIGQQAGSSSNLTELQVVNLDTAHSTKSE

[4] = target: T4, HA-CRP2ΔC (2-100 amino acids) (human) (UniProt Q16527); assay: co-IP; in vitro protein binding assay: mixtures (500 ul) of in vitro translated tagged proteins (wheat germ extract) immunoprecipitated with anti-HA affinity matrix or anti-Flag M2 gel (control gel beside), immunoblot; relative binding affinity normalised to the control = 100%
T4 sequence: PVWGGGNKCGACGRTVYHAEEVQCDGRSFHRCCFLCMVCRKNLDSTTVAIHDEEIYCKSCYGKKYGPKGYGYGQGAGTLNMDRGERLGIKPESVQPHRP

[5] = target: T5, HA-CRP2ΔN (101-193 amino acids) (human) (UniProt Q16527); assay: as above
T5 sequence: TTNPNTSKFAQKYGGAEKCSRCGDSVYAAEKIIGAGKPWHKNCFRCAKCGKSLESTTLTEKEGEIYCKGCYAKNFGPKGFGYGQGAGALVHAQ

[6] = target: T6, human CRP2 SRR mutant (human) (UniProt Q16527); assay: as above
T6 sequence: T1 sequence with S120A, R121V, R145A

binding [1]	binding [2]	binding [3]	binding [4]	binding [5]	binding [6]	Substance
binds						Flag-MAL fl D477-C, C-terminal domain of mouse MRTF-A (477-1021 amino acids) (domain or fragment)
	binds					Flag-tagged mouse MRTF-A (MAL fl), expressed in HSFs
binds		binds	binds weakly	binds	binds	Flag-tagged mouse MRTF-A (MAL fl), in vitro translated
